Article PMC9561260
Results are given in words; binding and its absence hold for the method and conditions named. In cells and extracts the contact can be indirect. A yes stands for co-enrichment or nearness to the bait. Other partners may have been found. Sequences can lack the tags named with a protein. One block for each binder: values may come before it.

Target: T1, 2× HA-3× FLAG-Eya1 (UniProt P97767)
T1 sequence: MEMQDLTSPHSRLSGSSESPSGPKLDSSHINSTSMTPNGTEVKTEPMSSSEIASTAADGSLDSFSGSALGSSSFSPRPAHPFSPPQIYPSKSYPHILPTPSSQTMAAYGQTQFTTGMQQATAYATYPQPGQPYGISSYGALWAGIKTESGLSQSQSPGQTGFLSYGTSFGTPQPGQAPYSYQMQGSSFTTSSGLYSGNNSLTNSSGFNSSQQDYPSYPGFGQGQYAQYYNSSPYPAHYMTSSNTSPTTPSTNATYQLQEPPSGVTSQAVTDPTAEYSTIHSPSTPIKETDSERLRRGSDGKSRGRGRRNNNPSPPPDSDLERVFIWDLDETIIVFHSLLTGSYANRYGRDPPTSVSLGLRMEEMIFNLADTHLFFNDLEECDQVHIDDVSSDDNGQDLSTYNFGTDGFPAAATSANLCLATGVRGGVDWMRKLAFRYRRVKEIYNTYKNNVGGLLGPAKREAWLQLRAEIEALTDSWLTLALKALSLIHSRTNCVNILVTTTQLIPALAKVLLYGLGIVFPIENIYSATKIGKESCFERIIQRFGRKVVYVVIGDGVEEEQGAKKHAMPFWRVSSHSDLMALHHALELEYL
Experiment: affinity purification with mass spectrometry; tandem purification of HF-Eya1 from lysate of stable HEK293 cells: anti-FLAG M2 beads, FLAG peptide elution, then anti-HA agarose; 50 mM Tris-HCl pH 7.5, 150 mM NaCl, 0.1% Nonidet P-40, 4°C; 12 bands (B1-B12) cut from a silver-stained gel

- binding: binds
B1: MCM3 (DNA replication licensing factor) (protein, UniProt P25205 1-808)
chain: MAGTVVLDDVELREAQRDYLDFLDDEEDQGIYQSKVRELISDNQYRLIVNVNDLRRKNEKRANRLLNNAFEELVAFQRALKDFVASIDATYAKQYEEFYVGLEGSFGSKHVSPRTLTSCFLSCVVCVEGIVTKCSLVRPKVVRSVHYCPATKKTIERRYSDLTTLVAFPSSSVYPTKDEENNPLETEYGLSVYKDHQTITIQEMPEKAPAGQLPRSVDVILDDDLVDKAKPGDRVQVVGTYRCLPGKKGGYTSGTFRTVLIACNVKQMSKDAQPSFSAEDIAKIKKFSKTRSKDIFDQLAKSLAPSIHGHDYVKKAILCLLLGGVERDLENGSHIRGDINILLIGDPSVAKSQLLRYVLCTAPRAIPTTGRGSSGVGLTAAVTTDQETGERRLEAGAMVLADRGVVCIDEFDKMSDMDRTAIHEVMEQGRVTIAKAGIHARLNARCSVLAAANPVYGRYDQYKTPMENIGLQDSLLSRFDLLFIMLDQMDPEQDREISDHVLRMHRYRAPGEQDGDAMPLGSAVDILATDDPNFSQEDQQDTQIYEKHDNLLHGTKKKKEKMVSAAFMKKYIHVAKIIKPVLTQESATYIAEEYSRLRSQDSMSSDTARTSPVTARTLETLIRLATAHAKARMSKTVDLQDAEEAVELVQYAYFKKVLEKEKKRKKRSEDESETEDEEEKSQEDQEQKRKRRKTRQPDAKDGDSYDPYDFSDTEEEMPQVHTPKTADSQETKESQKVELSESRLKAFKVALLDVFREAHAQSIGMNRLTESINRDSEEPFSSVEIQAALSKMQDDNQVMVSEGIIFLI

- binding: binds
B2: transcriptional activator PURA (protein, UniProt Q00577 1-322)
chain: MADRDSGSEQGGAALGSGGSLGHPGSGSGSGGGGGGGGGGGGSGGGGGGAPGGLQHETQELASKRVDIQNKRFYLDVKQNAKGRFLKIAEVGAGGNKSRLTLSMSVAVEFRDYLGDFIEHYAQLGPSQPPDLAQAQDEPRRALKSEFLVRENRKYYMDLKENQRGRFLRIRQTVNRGPGLGSTQGQTIALPAQGLIEFRDALAKLIDDYGVEEEPAELPEGTSLTVDNKRFFFDVGSNKYGVFMRVSEVKPTYRNSITVPYKVWAKFGHTFCKYSEEMKKIQEKQREKRAACEQLHQQQQQQQEETAAATLLLQGEEEGEED

- binding: binds
B3: transcription termination factor TTF2 (protein, UniProt Q9UNY4 1-1162)
chain: MEEVRCPEHGTFCFLKTGVRDGPNKGKSFYVCRADTCSFVRATDIPVSHCLLHEDFVVELQGLLLPQDKKEYRLFFRCIRSKAEGKRWCGSIPWQDPDSKEHSVSNKSQHASETFHHSSNWLRNPFKVLDKNQEPALWKQLIKGEGEEKKADKKQREKGDQLFDQKKEQKPEMMEKDLSSGLVPKKKQSVVQEKKQEEGAEIQCEAETGGTHKRDFSEIKSQQCQGNELTRPSASSQEKSSGKSQDVQRESEPLREKVTQLLPQNVHSHNSISKPQKGGPLNKEYTNWEAKETKAKDGPSIQATQKSLPQGHFQERPETHSVPAPGGPAAQAAPAAPGLSLGEGREAATSSDDEEEDDVVFVSSKPGSPLLFDSTLDLETKENLQFPDRSVQRKVSPASGVSKKVEPSDPVARRVYLTTQLKQKKSTLASVNIQALPDKGQKLIKQIQELEEVLSGLTLSPEQGTNEKSNSQVPQQSHFTKTTTGPPHLVPPQPLPRRGTQPVGSLELKSACQVTAGGSSQCYRGHTNQDHVHAVWKITSEAIGQLHRSLESCPGETVVAEDPAGLKVPLLLHQKQALAWLLWRESQKPQGGILADDMGLGKTLTMIALILTQKNQEKKEEKEKSTALTWLSKDDSCDFTSHGTLIICPASLIHHWKNEVEKRVNSNKLRVYLYHGPNRDSRARVLSTYDIVITTYSLVAKEIPTNKQEAEIPGANLNVEGTSTPLLRIAWARIILDEAHNVKNPRVQTSIAVCKLQACARWAVTGTPIQNNLLDMYSLLKFLRCSPFDEFNLWRSQVDNGSKKGGERLSILTKSLLLRRTKDQLDSTGRPLVILPQRKFQLHHLKLSEDEETVYNVFFARSRSALQSYLKRHESRGNQSGRSPNNPFSRVALEFGSEEPRHSEAADSPRSSTVHILSQLLRLRQCCCHLSLLKSALDPMELKGEGLVLSLEEQLSALTLSELRDSEPSSTVSLNGTFFKMELFEGMRESTKISSLLAELEAIQRNSASQKSVIVSQWTNMLKVVALHLKKHGLTYATIDGSVNPKQRMDLVEAFNHSRGPQVMLISLLAGGVGLNLTGGNHLFLLDMHWNPSLEDQACDRIYRVGQQKDVVIHRFVCEGTVEEKILQLQEKKKDLAKQVLSGSGESVTKLTLADLRVLFGI

- binding: binds
B4: RFC1 (replication factor, DNA-dependetn ATPase) (protein, UniProt P35251 1-1148)
chain: MDIRKFFGVIPSGKKLVSETVKKNEKTKSDEETLKAKKGIKEIKVNSSRKEDDFKQKQPSKKKRIIYDSDSESEETLQVKNAKKPPEKLPVSSKPGKISRQDPVTYISETDEEDDFMCKKAASKSKENGRSTNSHLGTSNMKKNEENTKTKNKPLSPIKLTPTSVLDYFGTGSVQRSNKKMVASKRKELSQNTDESGLNDEAIAKQLQLDEDAELERQLHEDEEFARTLAMLDEEPKTKKARKDTEAGETFSSVQANLSKAEKHKYPHKVKTAQVSDERKSYSPRKQSKYESSKESQQHSKSSADKIGEVSSPKASSKLAIMKRKEESSYKEIEPVASKRKENAIKLKGETKTPKKTKSSPAKKESVSPEDSEKKRTNYQAYRSYLNREGPKALGSKEIPKGAENCLEGLIFVITGVLESIERDEAKSLIERYGGKVTGNVSKKTNYLVMGRDSGQSKSDKAAALGTKIIDEDGLLNLIRTMPGKKSKYEIAVETEMKKESKLERTPQKNVQGKRKISPSKKESESKKSRPTSKRDSLAKTIKKETDVFWKSLDFKEQVAEETSGDSKARNLADDSSENKVENLLWVDKYKPTSLKTIIGQQGDQSCANKLLRWLRNWQKSSSEDKKHAAKFGKFSGKDDGSSFKAALLSGPPGVGKTTTASLVCQELGYSYVELNASDTRSKSSLKAIVAESLNNTSIKGFYSNGAASSVSTKHALIMDEVDGMAGNEDRGGIQELIGLIKHTKIPIICMCNDRNHPKIRSLVHYCFDLRFQRPRVEQIKGAMMSIAFKEGLKIPPPAMNEIILGANQDIRQVLHNLSMWCARSKALTYDQAKADSHRAKKDIKMGPFDVARKVFAAGEETAHMSLVDKSDLFFHDYSIAPLFVQENYIHVKPVAAGGDMKKHLMLLSRAADSICDGDLVDSQIRSKQNWSLLPAQAIYASVLPGELMRGYMTQFPTFPSWLGKHSSTGKHDRIVQDLALHMSLRTYSSKRTVNMDYLSLLRDALVQPLTSQGVDGVQDVVALMDTYYLMKEDFENIMEISSWGGKPSPFSKLDPKVKAAFTRAYNKEAHLTPYSLQAIKASRHSTSPSLDSEYNEELNEDDSQSDEKDQDAIETDAMIKKKTKSSKPSKPEKDKEPRKGKGKSSKK

- binding: binds
B5: FAM120A (constitutive activator of PPAR-gamma-like protein) (protein, UniProt Q9NZB2 1-1118)
chain: MGVQGFQDYIEKHCPSAVVPVELQKLARGSLVGGGRQRPPQTPLRLLVDADNCLHRLYGGFYTDWVSGGQWNHMLGYLAALAKACFGGNIELFVFFNGALEKARLHEWVKRQGNERQTAQQIVSHVQNKGTPPPKVWFLPPVCMAHCIRLALIRFHVKVAQSIEDHHQEVIGFCRENGFHGLVAYDSDYALCNIPYYFSAHALKLSRNGKSLTTSQYLMHEVAKQLDLNPNRFPIFAALLGNHILPDEDLASFHWSLLGPEHPLASLKVRAHQLVLPPCDVVIKAVADYVRNIQDTSDLDAIAKDVFQHSQSRTDDKVIRFKRAIGYYSATSKPMSFHPPHYLAARPGPFGMPGMVPPHVPPQMLNIPQTSLQAKPVAPQVPSPGGAPGQGPYPYSLSEPAPLTLDTSGKNLTEQNSYSNIPHEGKHTPLYERSSPINPAQSGSPNHVDSAYFPGSSTSSSSDNDEGSGGATNHISGNKIGWEKTGSHSEPQARGDPGDQTKAEGSSTASSGSQLAEGKGSQMGTVQPIPCLLSMPTRNHMDITTPPLPPVAPEVLRVAEHRHKKGLMYPYIFHVLTKGEIKIAVSIEDEANKDLPPAALLYRPVRQYVYGVLFSLAESRKKTERLAFRKNRLPPEFSPVIIKEWAAYKGKSPQTPELVEALAFREWTCPNLKRLWLGKAVEDKNRRMRAFLACMRSDTPAMLNPANVPTHLMVLCCVLRYMVQWPGARILRRQELDAFLAQALSPKLYEPDQLQELKIENLDPRGIQLSALFMSGVDMALFANDACGQPIPWEHCCPWMYFDGKLFQSKLLKASREKTPLIDLCDGQADQAAKVEKMRQSVLEGLSFSRQSHTLPFPPPPALPFYPASAYPRHFGPVPPSQGRGRGFAGVCGFGGPYGETVATGPYRAFRVAAASGHCGAFSGSDSSRTSKSQGGVQPIPSQGGKLEIAGTVVGHWAGSRRGRGGRGPFPLQVVSVGGPARGRPRGVISTPVIRTFGRGGRYYGRGYKNQAAIQGRPPYAASAEEVAKELKSKSGESKSSAMSSDGSLAENGVMAEEKPAPQMNGSTGDARAPSHSESALNNDSKTCNTNPHLNALSTDSACRREAALEAAVLNKEE

- binding: binds
B6: non-POU domain-containing octamer-binding protein NONO (protein, UniProt Q15233 1-471)
chain: MQSNKTFNLEKQNHTPRKHHQHHHQQQHHQQQQQQPPPPPIPANGQQASSQNEGLTIDLKNFRKPGEKTFTQRSRLFVGNLPPDITEEEMRKLFEKYGKAGEVFIHKDKGFGFIRLETRTLAEIAKVELDNMPLRGKQLRVRFACHSASLTVRNLPQYVSNELLEEAFSVFGQVERAVVIVDDRGRPSGKGIVEFSGKPAARKALDRCSEGSFLLTTFPRPVTVEPMDQLDDEEGLPEKLVIKNQQFHKEREQPPRFAQPGSFEYEYAMRWKALIEMEKQQQDQVDRNIKEAREKLEMEMEAARHEHQVMLMRQDLMRRQEELRRMEELHNQEVQKRKQLELRQEEERRRREEEMRRQQEEMMRRQQEGFKGTFPDAREQEIRMGQMAMGGAMGINNRGAMPPAPVPAGTPAPPGPATMMPDGTLGLTPPTTERFGQAATMEGIGAIGGTPPAFNRAAPGAEFAPNKRRRY
